Results: patent US8227422B2, “Peptides and compounds that bind to a receptor” (Glaxosmithkline LLC, priority 1996, dated 2012)
Where two headings read alike, the source gives them in different places. Not every detail of the peptide structures is certain; ends, links or a residue may be inferred. At least one structure is not confirmed: it was looked up by name or label, or the drawing left a doubt. Where a SMILES comes first, the peptide text is derived from it.

Columns and labels:
[1] = molecular target: T1, human TPO-R (transfected Ba/F3 cells) (Homo sapiens, UniProt P40238); experiment: Thrombopoietin dependent cell proliferation assay (MTT), TPO-R transfected Ba/F3 cells; type: cell-based
T1 construct: Murine IL-3 dependent Ba/F3 cells were transfected with full length human TPO-R; expressed in transfected cells; host or cells: murine Ba/F3 cells
T1 sequence (P40238 26-635): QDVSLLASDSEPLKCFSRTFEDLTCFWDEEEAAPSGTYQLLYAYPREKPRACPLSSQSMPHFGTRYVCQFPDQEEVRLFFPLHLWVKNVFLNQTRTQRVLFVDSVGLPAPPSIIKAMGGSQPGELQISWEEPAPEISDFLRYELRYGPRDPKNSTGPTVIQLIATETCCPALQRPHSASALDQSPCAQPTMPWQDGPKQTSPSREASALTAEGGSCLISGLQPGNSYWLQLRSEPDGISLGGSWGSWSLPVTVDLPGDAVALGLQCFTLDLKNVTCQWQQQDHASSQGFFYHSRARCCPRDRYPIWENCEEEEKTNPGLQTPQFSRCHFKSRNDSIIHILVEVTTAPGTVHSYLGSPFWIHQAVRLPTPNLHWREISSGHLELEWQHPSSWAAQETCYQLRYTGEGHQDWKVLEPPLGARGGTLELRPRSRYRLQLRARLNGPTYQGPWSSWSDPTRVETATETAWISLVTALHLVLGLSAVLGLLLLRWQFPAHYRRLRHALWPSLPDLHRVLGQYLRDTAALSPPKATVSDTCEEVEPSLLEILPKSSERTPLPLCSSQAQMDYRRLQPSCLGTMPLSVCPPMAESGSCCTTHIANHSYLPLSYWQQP

TPO receptor = molecular target: T2, TPO receptor (Homo sapiens, UniProt P40238); experiment: Microphysiometer assay: rate of acidification of extracellular medium on TPO receptor stimulation; type: cell-based
T2 sequence (P40238 26-635): T1 sequence (P40238 26-635)

TPO-R = molecular target: T3, TPO-R (Homo sapiens, UniProt P40238); experiment: Competition binding assay (equilibrium binding ELISA, MBP-TPO156 tracer) on immobilized TPO-R; conditions: read-out: IC50
T3 construct: made in house
T3 sequence (P40238 26-491 limits assumed): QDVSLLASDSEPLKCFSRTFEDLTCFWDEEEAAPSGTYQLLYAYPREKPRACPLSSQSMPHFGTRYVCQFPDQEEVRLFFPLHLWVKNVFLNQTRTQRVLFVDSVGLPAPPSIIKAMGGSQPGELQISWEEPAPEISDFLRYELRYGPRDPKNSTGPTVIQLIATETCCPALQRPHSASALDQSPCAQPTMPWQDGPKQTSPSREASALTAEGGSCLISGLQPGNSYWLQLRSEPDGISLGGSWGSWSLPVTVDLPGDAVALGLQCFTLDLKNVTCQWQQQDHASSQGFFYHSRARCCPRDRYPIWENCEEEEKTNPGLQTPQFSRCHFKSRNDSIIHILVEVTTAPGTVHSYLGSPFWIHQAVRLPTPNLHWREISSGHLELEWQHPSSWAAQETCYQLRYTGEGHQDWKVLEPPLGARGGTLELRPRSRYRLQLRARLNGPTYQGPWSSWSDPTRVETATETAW
Procedure: A variety of methods can be used to evaluate IC50 values. For example, an equilibrium binding ELISA assay, using either MBP-TPO or lacI-peptide tracer, was used to determine whether the peptides inhibit the binding of TPO to the extracellular domain of the TPO receptor. Typically, the IC50 value were determined using the free peptide. The IC50 value can be determined using the free peptide, which optionally can be C-terminally amidated, or can be prepared as an ester or other carboxy amide.
Binding affinities of chemically synthesized peptides for TPO-R were measured in a competition binding assay. The wells of a microtiter plate were coated with 1 mg streptavidin, blocked with PBS/1% BSA, followed by 50 ng of biotinylated anti-receptor immobilizing antibody (Ab179). The wells were then treated with a 1:10 dilution of soluble TPO-R harvest. Various concentrations of peptide or peptide mimetic were mixed with a constant amount of a truncated form of TPO consisting of residues 1-156 fused to the C-terminus of maltose binding protein (MBP-TPO156). The peptide MBP-TPO156 mixtures were added to the TPO-R coated wells, incubated for 2 hours at 4° C. and then washed with PBS. The amount of MBP-TPO156 that was bound at equilibrium was measured by adding a rabbit anti-sera directed against MBP, followed by alkaline phosphatase conjugated goat anti-rabbit IgG. The amount of alkaline phosphatase in each well was then determined using standard methods.
The assay is conducted over a range of peptide concentrations and the results are graphed such that the y axis represents the amount of bound MBP-TPO156 and the x axis represents the concentration of peptide or peptide mimetic.

[2] = Table 7, dimer compounds, read-out: EC50 (nM) Prolif.
[3] = Table 7, dimer compounds, read-out: EC50 (nM) Microonys.
[4] = Table 6, value in parentheses, read-out: EC50 (nM), microphysiometer results in parentheses

IC50 (TPO-R; Table 7, dimer compounds)	EC50 [1, 2]	EC50 (TPO receptor; [3])	EC50 (TPO receptor; [4])	also measured	Molecule
				EC50 ([1]; Table 4, cyclized compounds, read-out: EC50 (nM) Proliferation): < 500 nM; EC50 (TPO receptor; Table 4, cyclized compounds, microphysiometer, read-out: EC50 (nM) Microonys): < 200000 nM	CC[C@H](C)[C@@H]1NC(=O)[C@H](Cc2c[nH]c3ccccc23)NC(=O)[C@H](CCC(=O)O)NC(=O)[C@H](CCCNC(=N)N)NC(=O)[C@H](CC(C)C)NC(=O)[C@H]([C@@H](C)O)NC(=O)[C@@H]2CCCN2C(=O)CNC(=O)[C@H](CC(=O)O)NC(=O)[C@H](C)NC(=O)CCSC[C@@H](C(N)=O)NC(=O)[C@H](Cc2ccccc2)NC(=O)[C@H](CO)NC1=O (HELM PEPTIDE1{A.D.G.P.T.L.R.E.W.I.S.F.C.[am]}|CHEM1{[O=C(CC[*:2])[*:1]]}$PEPTIDE1,CHEM1,1:R1-1:R1|PEPTIDE1,CHEM1,13:R3-1:R2$$$V2.0)
≤ 500 nM	< 500 nM	< 500 nM			CC[C@H](C)[C@H](NC(=O)[C@H](Cc1c[nH]c2ccccc12)NC(=O)[C@H](CCC(=O)O)NC(=O)[C@H](CCCNC(=N)N)NC(=O)[C@H](CC(C)C)NC(=O)[C@@H](NC(=O)[C@@H]1CCCN1C(=O)CNC(=O)[C@H](CC(=O)O)NC(=O)[C@H](C)N)[C@@H](C)O)C(=O)N[C@@H](CO)C(=O)N[C@@H](Cc1ccccc1)C(=O)N[C@@H](CSSC[C@H](NC(=O)[C@H](Cc1ccccc1)NC(=O)[C@H](CO)NC(=O)[C@@H](NC(=O)[C@H](Cc1c[nH]c2ccccc12)NC(=O)[C@H](CCC(=O)O)NC(=O)[C@H](CCCNC(=N)N)NC(=O)[C@H](CC(C)C)NC(=O)[C@@H](NC(=O)[C@@H]1CCCN1C(=O)CNC(=O)[C@H](CC(=O)O)NC(=O)[C@H](C)N)[C@@H](C)O)[C@@H](C)CC)C(N)=O)C(N)=O (HELM PEPTIDE1{A.D.G.P.T.L.R.E.W.I.S.F.C.[am]}|PEPTIDE2{A.D.G.P.T.L.R.E.W.I.S.F.C.[am]}$PEPTIDE1,PEPTIDE2,13:R3-13:R3$$$V2.0)
≤ 500 nM	< 500 nM	< 500 nM			CC[C@H](C)[C@@H]1NC(=O)[C@H](Cc2c[nH]c3ccccc23)NC(=O)[C@H](CCC(=O)O)NC(=O)[C@H](CCCNC(=N)N)NC(=O)[C@H](CC(C)C)NC(=O)[C@H]([C@@H](C)O)NC(=O)[C@@H]2CCCN2C(=O)CNC(=O)[C@H](CC(=O)O)NC(=O)[C@H](C)NC(=O)[C@@H](N)CSSC[C@@H](C(N)=O)NC(=O)[C@H](Cc2ccccc2)NC(=O)[C@H](CO)NC1=O (HELM PEPTIDE1{C.A.D.G.P.T.L.R.E.W.I.S.F.C.[am]}$PEPTIDE1,PEPTIDE1,1:R3-14:R3$$$V2.0)
≤ 200000 nM	< 500 nM	< 500 nM			CC[C@H](C)[C@H](NC(=O)[C@H](Cc1c[nH]c2ccccc12)NC(=O)[C@H](CCC(=O)O)NC(=O)[C@H](CCCNC(=N)N)NC(=O)[C@H](CC(C)C)NC(=O)[C@@H](NC(=O)[C@@H]1CCCN1C(=O)CN)[C@@H](C)O)C(=O)N[C@@H](CO)C(=O)N[C@@H](Cc1ccccc1)C(=O)N[C@@H](CSSC[C@H](NC(=O)[C@H](Cc1ccccc1)NC(=O)[C@H](CO)NC(=O)[C@@H](NC(=O)[C@H](Cc1c[nH]c2ccccc12)NC(=O)[C@H](CCC(=O)O)NC(=O)[C@H](CCCNC(=N)N)NC(=O)[C@H](CC(C)C)NC(=O)[C@@H](NC(=O)[C@@H]1CCCN1C(=O)CN)[C@@H](C)O)[C@@H](C)CC)C(N)=O)C(N)=O (HELM PEPTIDE1{G.P.T.L.R.E.W.I.S.F.C.[am]}|PEPTIDE2{G.P.T.L.R.E.W.I.S.F.C.[am]}$PEPTIDE1,PEPTIDE2,11:R3-11:R3$$$V2.0)
				EC50 ([1]; Table 5, substitutions in cyclized compound, read-out: EC50 (nM) Cell Prolif.): < 200000 nM; EC50 (TPO receptor; Table 5, value in parentheses, read-out: EC50 (nM), microphysiometer results given in parentheses): < 200000 nM	CC[C@H](C)[C@@H]1NC(=O)[C@H](Cc2c[nH]c3ccccc23)NC(=O)[C@H](CCC(=O)O)NC(=O)[C@H](CCCNC(=N)N)NC(=O)[C@H](CC(C)C)NC(=O)[C@H]([C@@H](C)O)NC(=O)[C@@H]2CCCN2C(=O)CNC(=O)[C@@H](N)CSSC[C@@H](C(N)=O)NC(=O)[C@H](Cc2ccccc2)NC(=O)[C@H](CO)NC1=O [AD-deletion] (HELM PEPTIDE1{C.G.P.T.L.R.E.W.I.S.F.C.[am]}$PEPTIDE1,PEPTIDE1,1:R3-12:R3$$$V2.0)
			< 200000 nM		CC[C@H](C)[C@@H]1NC(=O)[C@H](Cc2c[nH]c3ccccc23)NC(=O)[C@H](CCC(=O)O)NC(=O)[C@H](CCCNC(=N)N)NC(=O)[C@H](CC(C)C)NC(=O)[C@H]([C@@H](C)O)NC(=O)[C@@H]2CCCN2C(=O)CNC(=O)[C@H](CCC(=O)O)NC(=O)[C@H](C)NC(=O)CSC[C@@H](C(N)=O)NC(=O)[C@H](Cc2ccccc2)NC(=O)[C@H](CO)NC1=O [D–E] (HELM PEPTIDE1{[O=C(C[*:3])[*:2]].A.E.G.P.T.L.R.E.W.I.S.F.C.[am]}$PEPTIDE1,PEPTIDE1,1:R3-14:R3$$$V2.0)
			< 500 nM		CC[C@H](C)[C@@H]1NC(=O)[C@H](Cc2c[nH]c3ccccc23)NC(=O)[C@H](CCC(=O)O)NC(=O)[C@H](CCCNC(=N)N)NC(=O)[C@H](CC(C)C)NC(=O)[C@H]([C@@H](C)O)NC(=O)[C@@H]2CCCN2C(=O)CNC(=O)[C@H](CC(=O)O)NC(=O)[C@H](C)NC(=O)CSC[C@@H](C(N)=O)NC(=O)[C@H](C(c2ccccc2)c2ccccc2)NC(=O)[C@H](CO)NC1=O [F-DiPh-Ala] (HELM PEPTIDE1{[O=C(C[*:3])[*:2]].A.D.G.P.T.L.R.E.W.I.S.[O=C([C@@H](N[*:1])C(c1ccccc1)c1ccccc1)[*:2]].C.[am]}$PEPTIDE1,PEPTIDE1,1:R3-14:R3$$$V2.0)
			< 200000 nM	EC50 ([1]; Table 6, read-out: EC50 (nM) Cell Prolif.): < 200000 nM	CC[C@@H]1NC(=O)[C@H]([C@@H](C)CC)NC(=O)[C@H](Cc2c[nH]c3ccccc23)NC(=O)[C@H](CCC(=O)O)NC(=O)[C@H](CCCNC(=N)N)NC(=O)[C@H](CC(C)C)NC(=O)[C@H]([C@@H](C)O)NC(=O)[C@@H]2CCCN2C(=O)CNC(=O)[C@H](CC(=O)O)NC(=O)[C@H](C)NC(=O)CSC[C@@H](C(N)=O)NC(=O)[C@H](C(c2ccccc2)c2ccccc2)NC1=O [S,F-Abu,DiPh-Ala] (HELM PEPTIDE1{[O=C(C[*:3])[*:2]].A.D.G.P.T.L.R.E.W.I.[Abu].[O=C([C@@H](N[*:1])C(c1ccccc1)c1ccccc1)[*:2]].C.[am]}$PEPTIDE1,PEPTIDE1,1:R3-14:R3$$$V2.0)
			< 500 nM		CC[C@@H]1NC(=O)[C@H]([C@@H](C)CC)NC(=O)[C@H](Cc2c[nH]c3ccccc23)NC(=O)[C@H](CCC(=O)O)NC(=O)[C@H](CCCNC(=N)N)NC(=O)[C@H](CC(C)C)NC(=O)[C@H]([C@@H](C)O)NC(=O)[C@@H]2CCCN2C(=O)CNC(=O)[C@H](CC(=O)O)NC(=O)[C@H](C)NC(=O)[C@@H](N)CSSC[C@@H](C(N)=O)NC(=O)[C@H](Cc2ccccc2)NC1=O [S-Abu] (HELM PEPTIDE1{C.A.D.G.P.T.L.R.E.W.I.[Abu].F.C.[am]}$PEPTIDE1,PEPTIDE1,1:R3-14:R3$$$V2.0; N-terminus and C-terminus assumed)
				IC50 (TPO-R; Table 9): ≤ 500 nM; EC50 ([1]; Table 9, read-out: EC50 (nM) Prolif.): < 500 nM	H-KEGPTLRQWLAARA-NH2
